Measurements as given in PMC7255015.
No constants are given. Whether binding was seen depends on the method and setting. In cells and extracts the contact can be indirect. Some results given as binding are weak or reduced against the parent protein; the word gives no strength. Tags and fused reporters may be left off the sequences shown.

Molecular target: T1, Flag-tagged CD82 (wild type) (human) (UniProt P27701)
T1 sequence (chain, N-glycosylated at Asn129, Asn157 and Asn198): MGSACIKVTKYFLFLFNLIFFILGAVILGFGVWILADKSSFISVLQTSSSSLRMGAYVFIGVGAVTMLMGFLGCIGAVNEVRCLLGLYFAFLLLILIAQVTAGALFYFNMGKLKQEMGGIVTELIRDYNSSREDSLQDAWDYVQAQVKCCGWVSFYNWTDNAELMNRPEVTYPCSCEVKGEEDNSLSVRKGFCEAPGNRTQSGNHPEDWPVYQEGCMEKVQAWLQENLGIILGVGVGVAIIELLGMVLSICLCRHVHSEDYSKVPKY
Assay: co-IP; anti-Flag antibody and G-agarose beads overnight, lysates of stable ES2 cells in IP buffer (50 mM Tris-HCl pH 7.4, 150 mM NaCl, 0.1% NP-40, 5 mM EDTA); western blot of the precipitate

B1: glycosyltransferase MGAT3 (enzyme, UniProt Q09327 1-533)
chain: MKMRRYKLFLMFCMAGLCLISFLHFFKTLSYVTFPRELASLSPNLVSSFFWNNAPVTPQASPEPGGPDLLRTPLYSHSPLLQPLPPSKAAEELHRVDLVLPEDTTEYFVRTKAGGVCFKPGTKMLERPPPGRPEEKPEGANGSSARRPPRYLLSARERTGGRGARRKWVECVCLPGWHGPSCGVPTVVQYSNLPTKERLVPREVPRRVINAINVNHEFDLLDVRFHELGDVVDAFVVCESNFTAYGEPRPLKFREMLTNGTFEYIRHKVLYVFLDHFPPGGRQDGWIADDYLRTFLTQDGVSRLRNLRPDDVFIIDDADEIPARDGVLFLKLYDGWTEPFAFHMRKSLYGFFWKQPGTLEVVSGCTVDMLQAVYGLDGIRLRRRQYYTMPNFRQYENRTGHILVQWSLGSPLHFAGWHCSWCFTPEGIYFKLVSAQNGDFPRWGDYEDKRDLNYIRGLIRTGGWFDGTQQEYPPADPSEHMYAPKYLLKNYDRFHYLLDNPYQEPRSTAAGGWRHRGPEGRPPARGKLDEAEV
With B1 as the binder, how does the binding read?
The binding was “binds”.
